Test results as given in US8846747B2, “Compounds and methods for altering lifespan of eukaryotic organisms” (University of Rochester, priority 2009, dated 2014).
Some results were stated once for a whole list of compounds, not compound by compound.

System: strain FY839 (healthy wild-type)
Test: Toxicity of compounds by yeast growth assay
Type: cell-based
Settings: FY839 growing in SCD, 12 hours; FIG. 2
Method: The toxicity of compounds C1-1, C1-2, C1-3, C1-4, and C1-5 in yeast was assessed by determining their effects on growth of a wild-type yeast strain. FIG. 2 is a graphical representation of the toxicity data. The yeast used was strain FY839 (healthy wild-type) growing in SCD. At 12 hours all were in log phase. […] This concentration is many-fold higher than the effective concentrations of these compounds as assessed by DeaD lifespan assays.

Structure (SMILES)	concentration reducing growth of yeast strain FY839 by half
CCC(=O)C1C(=O)CC(C2CCCCC2)CC1=O (centres unmarked) [SRI# 22788, 1,3-cyclohexanedione, 2-propanoyl-5-cyclohexyl-]	> 10 μm
CCCCC1CC(=O)C(C(C)=O)C(=O)C1 (centres unmarked) [SRI# 22942, 1,3-cyclohexanedione, 2-acetyl-5-butyl-]	> 10 μm
CC(=O)C1C(=O)CC(c2cccs2)CC1=O (centres unmarked) [SRI# 22933, 1,3-cyclohexanedione, 2-acetyl 5-[thien-2-yl]-]	> 10 μm
CCC(=O)C1C(=O)CC(C2CC3C=CC2C3)CC1=O (centres unmarked) [SRI# 22965, 1,3-cyclohexanedione, 2-propanoyl-5-[bicyclo[2.2.1]hept-2-en-5-yl]-]	> 10 μm
CCC(=O)C1C(=O)CC(c2ccc(F)cc2)CC1=O (centres unmarked) [SRI# 22790, 1,3-cyclohexanedione, 2-propanoyl-5-[4-fluorophenyl]-]	> 10 μm
